PubChem BioAssay AID1259405, NCATS | 2018

Screen: 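Silenced genes that increase secreted GFP made by CHO cells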 (primary screen)
Cells: Chinese hamster CHO-K1 ovary cells with stable secreted eGFP expression
Reagent: single siRNA against mouse genes, 0.8 pmol siRNA per well (2 µl of 400 nM stock)
Timing: 3 days
Measured: 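Percent of the per-plate non-targeting control median for intracellular GFP per well by laser scanning cytometry and for cell viability by ATP luminescence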
Scale: GFP, % of control: higher = more GFP per well, higher productivity; viability (ATP), % of control: higher = more viable cells (more ATP)
Rule for the call: 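Called active when intracellular GFP, relative to negative control, is at or above 120%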
Here is a random part of about 50,000 reagents. In the full data, about 4,000 (8%) are marked active. 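Mouse siRNA library applied to hamster cells; one well for each siRNA.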 The numbers tell different reagents against one gene apart.

no.	gene	reagent no.	GFP, % of control	viability (ATP), % of control	call
1	Kansl1l (GeneID 68691)	1	82.5	97.7	inactive
2	Kansl1l (GeneID 68691)	2	53.7	48.8	inactive
3	Kansl1l (GeneID 68691)	3	52.6	56.2	inactive
4	Ptpro (GeneID 19277)	1	107	71	inactive
5	Ptpro (GeneID 19277)	2	57.6	41.8	inactive
6	Ptpro (GeneID 19277)	3	126	113	active
7	Rxrg (GeneID 20183)	1	98.7	74.7	inactive
8	Rxrg (GeneID 20183)	2	122	78.9	active
9	Rxrg (GeneID 20183)	3	67.4	75.9	inactive
10	Or2y1c (GeneID 257888)	1	43.6	49.1	inactive
11	Or2y1c (GeneID 257888)	2	85.5	52.1	inactive
12	Or2y1c (GeneID 257888)	3	68.3	57.2	inactive
13	Skint10 (GeneID 230613)	1	70.6	61.1	inactive
14	Skint10 (GeneID 230613)	2	70.4	71.3	inactive
15	Skint10 (GeneID 230613)	3	91.8	97.9	inactive
16	Senp3 (GeneID 80886)	1	73	93.2	inactive
17	Senp3 (GeneID 80886)	2	45.3	56.3	inactive
18	Senp3 (GeneID 80886)	3	84.4	77.6	inactive
19	Zfp607b (GeneID 112415)	1	36.8	44	inactive
20	Zfp607b (GeneID 112415)	2	105	80.4	inactive
21	Zfp607b (GeneID 112415)	3	76.7	92.3	inactive
22	Cela2a (GeneID 13706)	1	162	79.6	active
23	Cela2a (GeneID 13706)	2	103	83.3	inactive
24	Cela2a (GeneID 13706)	3	73.1	62.1	inactive
25	Loxl1 (GeneID 16949)	1	106	62	inactive
26	Loxl1 (GeneID 16949)	2	48.4	56.2	inactive
27	Loxl1 (GeneID 16949)	3	102	57.2	inactive
28	Proz (GeneID 66901)	1	50.4	58.2	inactive
29	Proz (GeneID 66901)	2	71	43.4	inactive
30	Proz (GeneID 66901)	3	95.4	63.4	inactive
31	Vmn1r23 (GeneID 171197)	1	72.3	55.6	inactive
32	Vmn1r23 (GeneID 171197)	2	81.8	80.6	inactive
33	Vmn1r23 (GeneID 171197)	3	110	113	inactive
34	Samd12 (GeneID 320679)	1	100	63.8	inactive
35	Samd12 (GeneID 320679)	2	65.1	64.2	inactive
36	Samd12 (GeneID 320679)	3	122	70.9	active

Copied from the listing (3 entries):
no.	gene	reagent no.	GFP, % of control	viability (ATP), % of control	call
17	Senp3 (GeneID 80886)	2	45.3	56.3	inactive
18	Senp3 (GeneID 80886)	3	84.4	77.6	inactive
19	Zfp607b (GeneID 112415)	1	36.8	44	inactive
